The nature of data set [1]: peptide made by a vendor (Fmoc solid-phase peptide synthesis; Fmoc-PAL AM resin (Novabiochem) pre-loaded with GSGSDYKDDDDK-NH2; DIC / Oxyma / collidine). The conditions noted are these: whole synthesis, analytical HPLC/UPLC.
A short description of data set [2]: general procedure: Fmoc solid-phase peptide synthesis; Fmoc-PAL AM resin (Novabiochem) pre-loaded with GSGSDYKDDDDK-NH2; DIC / Oxyma / collidine. To be noted: whole synthesis, analytical HPLC/UPLC.
Setting [3] is: one disulfide bridge, sequence written open.

For some of these results: Where a sequence shows no end group, the ends are not given. HELM strings list residues between dots; [ac] is acetyl, [am] amide, other brackets name non-standard units.

On to “PEPTIDE1{[ac].M.C.T.T.L.Y.Y.Y.K.L.W.R.R.C.G.S.G.S.E.E.G.S.G.S.D.Y.K.D.D.D.D.K.[am]}$PEPTIDE1,PEPTIDE1,3:R3-15:R3$$$V2.0”, for which the “final HPLC purity” value in data set [1] is on record as 85.19%. The “crude HPLC purity” value in data set [2] is given as 77.24%. In the case of “PEPTIDE1{[ac].M.C.N.K.H.L.Y.Y.Y.L.L.F.K.Q.C.G.S.G.S.D.Y.K.D.D.D.D.K.[am]}$PEPTIDE1,PEPTIDE1,3:R3-16:R3$$$V2.0”, the “final HPLC purity” value in data set [1] was found to be 92.86%. Take “PEPTIDE1{[ac].M.C.Y.T.K.A.Y.W.H.E.P.W.R.P.C.G.S.G.S.D.Y.K.D.D.D.D.K.[am]}$PEPTIDE1,PEPTIDE1,3:R3-16:R3$$$V2.0”: the “final HPLC purity” value in data set [1] was 92.50%.

In the case of “PEPTIDE1{[ac].M.C.E.H.L.Y.Y.Y.L.L.S.H.R.R.C.G.S.G.S.D.Y.K.D.D.D.D.K.[am]}$PEPTIDE1,PEPTIDE1,3:R3-16:R3$$$V2.0”, the “final HPLC purity” value in data set [1] was found to be 85.17%. For “PEPTIDE1{[ac].M.C.E.N.K.K.V.L.F.Y.Y.L.L.W.C.G.S.G.S.D.Y.K.D.D.D.D.K.[am]}$PEPTIDE1,PEPTIDE1,3:R3-16:R3$$$V2.0”, the “final HPLC purity” value in data set [1] is 85.09%. The same measure, in the same setting: the result for “PEPTIDE1{[ac].M.C.F.W.K.K.L.H.V.F.W.V.K.D.C.G.S.G.S.D.Y.K.D.D.D.D.K.[am]}$PEPTIDE1,PEPTIDE1,3:R3-16:R3$$$V2.0” reads 95.71%; that for “PEPTIDE1{[ac].M.C.N.D.L.F.Y.Y.L.L.W.R.K.A.C.G.S.G.S.D.Y.K.D.D.D.D.K.[am]}$PEPTIDE1,PEPTIDE1,3:R3-16:R3$$$V2.0”, 86.11%.

Turning to “PEPTIDE1{[ac].M.C.D.K.Y.W.V.K.Y.W.I.A.W.R.C.G.S.G.S.D.Y.K.D.D.D.D.K.[am]}$PEPTIDE1,PEPTIDE1,3:R3-16:R3$$$V2.0”, the “final HPLC purity” value in data set [1] is recorded as 88.62%. Still for that read-out and setting: to “PEPTIDE1{[ac].M.C.Y.N.K.F.I.T.L.Y.K.V.L.Y.C.G.S.G.S.D.Y.K.D.D.D.D.K.[am]}$PEPTIDE1,PEPTIDE1,3:R3-16:R3$$$V2.0” belongs 85.53%. “PEPTIDE1{[ac].M.C.S.I.L.L.Y.K.V.L.S.Q.C.G.S.G.S.D.Y.K.D.D.D.D.K.[am]}$PEPTIDE1,PEPTIDE1,3:R3-14:R3$$$V2.0”: the “crude HPLC purity” value in data set [2] is 82.97%.

As for “PEPTIDE1{[ac].M.C.P.V.I.I.Y.K.I.L.S.H.C.G.S.G.S.D.Y.K.D.D.D.D.K.[am]}$PEPTIDE1,PEPTIDE1,3:R3-14:R3$$$V2.0”, the “crude HPLC purity” value in data set [2] is on record as 57.48%. On to MCFVYPRRQPLYWIC, for which the “crude HPLC purity” value in data set [2] (setting [3]) is on record as 100%.

Consider “PEPTIDE1{[ac].M.C.F.W.P.I.W.Y.K.F.M.A.C.G.S.G.S.D.Y.K.D.D.D.D.K.[am]}$PEPTIDE1,PEPTIDE1,3:R3-14:R3$$$V2.0”, for which the “crude HPLC purity” value in data set [2] amounted to 76.61%. For MCIFELNLPFIPC, the “crude HPLC purity” value in data set [2] (setting [3]) amounted to 100%. With “PEPTIDE1{[ac].M.C.K.R.E.I.K.Y.W.L.V.F.C.G.S.G.S.D.Y.K.D.D.D.D.K.[am]}$PEPTIDE1,PEPTIDE1,3:R3-14:R3$$$V2.0”, the “crude HPLC purity” value in data set [2] was found to be 21.16%. On to “PEPTIDE1{[ac].M.C.L.W.Y.Y.L.Q.F.H.R.R.E.C.G.S.G.S.D.Y.K.D.D.D.D.K.[am]}$PEPTIDE1,PEPTIDE1,3:R3-15:R3$$$V2.0”, for which the “crude HPLC purity” value in data set [2] was determined as 27.66%. Consider MCQQWNLYTRHWHIC, for which the “crude HPLC purity” value in data set [2] (setting [3]) was determined as 64.14%. Regarding MCIFDNWLPFIYC, the “crude HPLC purity” value in data set [2] (setting [3]) was determined as 79.77%. Regarding “PEPTIDE1{[ac].M.C.Y.K.Y.S.K.D.L.W.L.Y.R.L.W.C.G.S.G.S.D.Y.K.D.D.D.D.K.[am]}$PEPTIDE1,PEPTIDE1,3:R3-17:R3$$$V2.0”, the “crude HPLC purity” value in data set [2] is listed as 38.33%. Turning to “PEPTIDE1{M.C.I.G.K.W.Y.T.Y.Q.Y.W.T.R.C.G.S.G.S.D.Y.K.D.D.D.D.K.[am]}$PEPTIDE1,PEPTIDE1,2:R3-15:R3$$$V2.0”, in data set [2], the “crude HPLC purity” value is listed as 100% and the “final HPLC purity” value was determined as 81.6%. Regarding “PEPTIDE1{[ac].M.C.V.W.Q.Y.S.H.H.Y.N.W.H.C.G.S.G.S.D.Y.K.D.D.D.D.K.[am]}$PEPTIDE1,PEPTIDE1,3:R3-15:R3$$$V2.0”, the “crude HPLC purity” value in data set [2] is listed as 39.17%.

Take “PEPTIDE1{[ac].M.C.I.K.D.L.H.L.F.Y.Y.L.L.C.G.S.G.S.D.Y.K.D.D.D.D.K.[am]}$PEPTIDE1,PEPTIDE1,3:R3-15:R3$$$V2.0”: in data set [2], the “crude HPLC purity” value is 59.90%.

Turning to MCIFDTFLPFIFC, in data set [2] (setting [3]), the “crude HPLC purity” value was found to be 71.94%.

With “PEPTIDE1{[ac].M.C.Y.R.F.P.S.S.H.L.F.W.A.C.G.S.G.S.D.Y.K.D.D.D.D.K.[am]}$PEPTIDE1,PEPTIDE1,3:R3-15:R3$$$V2.0”, in data set [2], the “crude HPLC purity” value came out at 50.17%. As to MCHFRPNKFTAWLPC, the “crude HPLC purity” value in data set [2] (setting [3]) worked out at 61.38%.

For the substance “PEPTIDE1{[ac].M.C.Y.Y.N.F.L.N.K.V.L.V.Y.C.G.S.G.S.D.Y.K.D.D.D.D.K.[am]}$PEPTIDE1,PEPTIDE1,3:R3-15:R3$$$V2.0”, the “crude HPLC purity” value in data set [2] stood at 62.65%. Still for that read-out and setting: to MCSCFPPLCFLIC belongs 37.51%; to “PEPTIDE1{[ac].M.C.A.K.E.H.L.F.Y.Y.L.L.W.C.G.S.G.S.D.Y.K.D.D.D.D.K.[am]}$PEPTIDE1,PEPTIDE1,3:R3-15:R3$$$V2.0”, 45.38%. Regarding “PEPTIDE1{M.C.T.K.F.P.W.P.F.P.I.F.W.A.C.G.S.G.S.D.Y.K.D.D.D.D.K.[am]}$PEPTIDE1,PEPTIDE1,2:R3-15:R3$$$V2.0”, in data set [2], the “crude HPLC purity” value is on record as 23.51% and the “final HPLC purity” value is on record as 49.5%. Take “PEPTIDE1{[ac].M.C.T.Y.E.F.L.F.E.E.L.Y.L.H.C.G.S.G.S.D.Y.K.D.D.D.D.K.[am]}$PEPTIDE1,PEPTIDE1,3:R3-16:R3$$$V2.0”: the “crude HPLC purity” value in data set [2] was 58.48%. For “PEPTIDE1{[ac].M.C.H.V.I.L.W.R.S.W.R.Y.C.G.S.G.S.D.Y.K.D.D.D.D.K.[am]}$PEPTIDE1,PEPTIDE1,3:R3-14:R3$$$V2.0”, in data set [2], the “crude HPLC purity” value came out at 64.78% and the “final HPLC purity” value is on record as 69.6%. For “PEPTIDE1{[ac].M.C.D.V.L.L.Y.K.L.F.R.Y.C.G.S.G.S.D.Y.K.D.D.D.D.K.[am]}$PEPTIDE1,PEPTIDE1,3:R3-14:R3$$$V2.0”, the “crude HPLC purity” value in data set [2] turned out to be 77.3%. On the same count and under the same terms, the result for “PEPTIDE1{[ac].M.C.R.E.L.L.Y.Y.L.L.Q.R.C.G.S.G.S.D.Y.K.D.D.D.D.K.[am]}$PEPTIDE1,PEPTIDE1,3:R3-14:R3$$$V2.0” reads 57.23%.

Regarding “PEPTIDE1{[ac].M.C.P.E.R.L.F.Y.W.L.L.V.C.G.S.G.S.D.Y.K.D.D.D.D.K.[am]}$PEPTIDE1,PEPTIDE1,3:R3-14:R3$$$V2.0”, in data set [2], the “crude HPLC purity” value is given as 0% and the “final HPLC purity” value turned out to be 51.9%.

In the case of MCLFDSFVPFIFC, in data set [2] (setting [3]), the “crude HPLC purity” value was determined as 78.93% and the “final HPLC purity” value came out at 83.0%. For “PEPTIDE1{[ac].M.C.R.E.I.R.Y.W.Q.L.W.Q.C.G.S.G.S.D.Y.K.D.D.D.D.K.[am]}$PEPTIDE1,PEPTIDE1,3:R3-14:R3$$$V2.0”, the “crude HPLC purity” value in data set [2] worked out at 40.28%. On the same count and under the same terms, the result for “PEPTIDE1{[ac].M.C.E.H.R.H.P.Y.G.H.W.E.Q.C.G.S.G.S.D.Y.K.D.D.D.D.K.[am]}$PEPTIDE1,PEPTIDE1,3:R3-15:R3$$$V2.0” reads 58.43%.

Turning to MCHCFPTICWLVC, the “crude HPLC purity” value in data set [2] was 44.09%. “PEPTIDE1{[ac].M.C.E.Q.R.S.R.W.S.N.Y.W.Y.P.C.G.S.G.S.D.Y.K.D.D.D.D.K.[am]}$PEPTIDE1,PEPTIDE1,3:R3-16:R3$$$V2.0”: the “crude HPLC purity” value in data set [2] is recorded as 69.02%.

As to MCIFDNWLPFIFC, the “crude HPLC purity” value in data set [2] (setting [3]) is on record as 41.9%.

The record behind these values is paper PMC10763615 (RSC Chemical Biology, 2023).
